Data taken from PubChem BioAssay AID493014 (National Center for Advancing Translational Sciences (NCATS), 2011).
Screen size: about 340,000 compounds; about 170 (0.05%) were called active. Inconclusive means that the source gave no clear call. Such entries were picked first, then a sample of the others. Calls follow the shape of the dose curve; as a rule, active = well fitted inhibition curve with a large enough effect in the signal ratio, with a control signal flat (not every such curve was filed as active); inconclusive = small, poorly fitted or top-dose-only effect, or effect the other way, or a change in a side signal; inactive = flat fitted curve, though single readings scatter; the % refers to the signal ratio. A potency beside an inconclusive call is a rough fit, not a confirmed value.
Potency is read from the fitted curve at half-maximal effect.

Experiment: qHTS Assay to Find Inhibitors of Chronic Active B-Cell Receptor Signaling;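 as to activity change, negative = inhibition: plate controls were basal doxycycline-induced cells for no effect and cells given 10 µM MG132 for full effect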
Conditions: ABC-DLBCL IkBa-CBG/CBR reporter, luminescence ratio (green luciferase fused to IkBa over red control in TMD8 lymphoma cells), 4 h; activity change, negative = inhibition: at 46.1 µM (top of the series)
Summary of the method: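 TMD8 ABC-DLBCL cells carrying doxycycline-inducible green luciferase fused to IkappaBalpha plus unfused red luciferase were exposed to compounds (up to 46 uM) for 4 hrs at 37C. Activity came from the overlap-corrected green/red luminescence ratio.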
With `COc1ccc(OC)c(NC(=O)C2CCCN(S(=O)(=O)c3cccc4cccnc34)C2)c1` (stereo not drawn) the activity change, negative = inhibition was inconclusive: -1.29%. With `COc1ccc2[nH]c3c(NCCCOC(C)C)ncnc3c2c1` the “activity change, negative = inhibition” value was inactive: 7.24%. In the case of `C=CCn1c(CNC(=O)c2ccco2)nnc1SCC(=O)c1ccccc1`, the Potency is reported as inconclusive: 35.5 µM [falling, single point]. With `CC1CCCCN1C(=O)c1cccc(NC2=C(Cl)C(=O)N(Cc3ccccc3)C2=O)c1` (stereo not drawn) the activity change, negative = inhibition was inconclusive: -14.2%. For `CC(C)N(C(=O)COC(=O)CCC(=O)c1cccs1)c1ccccc1`, the “activity change, negative = inhibition” value was inactive: 0.702%. For `Cc1ccc(C)c(N(CC(=O)NN=C2CCCCCCC2)S(C)(=O)=O)c1`, the activity change, negative = inhibition was inconclusive: -0.789%. For `N#CCCn1c(O)c(N=NC(=O)CNC(=O)c2cccs2)c2ccccc21`, the Potency was inconclusive: 8.91 µM [falling, partial curve, poor fit]. In the case of `Cc1cc(/C=N/NC(=O)Cn2c3ccccc3c(=O)c3ccccc32)c(C)n1-c1ccc(Cl)cc1`, the “activity change, negative = inhibition” value is reported as inactive: -0.15%. For `CCOC(=O)c1[nH]c2ccc(Br)cc2c1NC(=O)CCN1CCOCC1`, the activity change, negative = inhibition was inconclusive: 11%. In the case of `Cc1ccc(N(CC(O)COCc2ccco2)S(=O)(=O)c2ccc(C)cc2)cc1` (stereo not drawn), the “activity change, negative = inhibition” value is reported as inactive: 14.9%. With `CCOC(=O)c1cc(-c2ccccc2)sc1NC(=O)CSc1nnc(N)s1` the activity change, negative = inhibition was inconclusive: 6.64%. In the case of `CC(=O)N1c2ccc(S(=O)(=O)N3CCCC3)cc2CC1C(=O)Nc1cc(C)cc(C)c1` (stereo not drawn), the “activity change, negative = inhibition” value is reported as inactive: 5.79%. With `Cn1ccc(C(=O)Nc2ccc(Br)cc2Br)n1` the activity change, negative = inhibition was inconclusive: 12.7%. For `CCN(CC)C(=O)c1ccc2c(=O)n(Cc3cccc(Br)c3)c(=S)[nH]c2c1`, the “activity change, negative = inhibition” value was inactive: -3.72%. For `Cc1cccc(Nc2nc(N)c([N+](=O)[O-])c(N3CCC(C)CC3)n2)c1`, the “activity change, negative = inhibition” value was inactive: -3.58%. In the case of `CC(=O)N1CCN(c2ccccc2NC(=O)c2ccc3ccccc3c2)CC1`, the activity change, negative = inhibition is reported as inconclusive: -1.62%. In the case of `CCc1ccc(CCC(=O)Nc2ccc(Br)cc2)o1`, the activity change, negative = inhibition is reported as inconclusive: 1.34%. In the case of `COCCNC(=O)CN(C(=O)CCC(=O)Nc1ccccn1)c1ccccc1F`, the activity change, negative = inhibition is reported as inconclusive: 16.7%. With `COc1ccc2c(C)cc(N3CCCCCC3)nc2c1` the activity change, negative = inhibition was inconclusive: 9.26%. With `Clc1ccc(C(c2ccccc2)N2CCN(c3ccccn3)CC2)cc1` (stereo not drawn) the “activity change, negative = inhibition” value was inactive: 17.8%. With `Fc1cccc(Nc2nc3ccccc3n3nnnc23)c1` the Potency was inconclusive: 14.6 µM [falling, partial curve, poor fit]. For `CCOc1ccc(OCc2cccc(C(=O)N(CC)CC)c2)cc1`, the Potency was inconclusive: 22.4 µM [falling, single point]. In the case of `CC(C)CCC1=NN(C(=O)c2ccco2)C(O)(C(F)(F)F)C1` (stereo not drawn), the Potency is reported as inconclusive: 35.5 µM [falling, partial curve, poor fit].
